Patent US20160046678A1 (ZYNGENIA, published 2016)
These are yes or no findings as the source states them, for the method shown. Some results given as binding are weak or reduced against the parent protein; the word gives no strength.

By UniProt entry, the sequences of proteins in these tests, tags left out. Where a name states a change or a piece, a line headed by the entry shows the natural chain unless it says otherwise. Chains listed by the source or under a name are the forms on record and can include a tag or linker. Residues count along the entry.
UniProt Q16552, residues 24-155: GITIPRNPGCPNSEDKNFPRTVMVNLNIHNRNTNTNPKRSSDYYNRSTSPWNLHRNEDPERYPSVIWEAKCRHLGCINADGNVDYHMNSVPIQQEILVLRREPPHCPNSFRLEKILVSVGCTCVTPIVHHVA
VEGF (P15692, form named): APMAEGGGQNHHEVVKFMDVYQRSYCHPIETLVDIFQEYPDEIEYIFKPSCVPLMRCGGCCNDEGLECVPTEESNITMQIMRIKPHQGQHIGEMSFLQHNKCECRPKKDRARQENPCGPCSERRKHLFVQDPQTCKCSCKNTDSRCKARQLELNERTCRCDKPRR

The binders below were run against IL17a (UniProt Q16552) (assay: peptide selection, Example 48).

binding, binds:
GHIGCWGPEWYCHWYG [ILA40]
YDVWCFFFPDEIMCNETQ [ILA27]
LGLWCWMFPIDSFCYPAV [ILA19]
WCFGCVIPPFWYECMCPT [ILA36]
VEIDCEYDWMNEYLYCAPRV [ILA28]
MDLSCWMTDPTLEWWFCEYRP [ILA34]
ESLWCWMFPNEQTCLVQH [ILA7]
LGLWCWMFPWEQVCSVRL [ILA50]
LSLWCWHDQAEFCVESN [ILA1]
MGELCEFFGFHDCPMQI [ILA11]
STWECWEVNNETYECARLL [ILA45]
LSLWCWMFPEHNACLSPV [ILA6]
GTWDCWVEGEWVYCTPWS [ILA4]
LDLVCWMYPTEKACWSMR [ILA48]
LGLWCFVYPDDQMCIRSW [ILA10]
IFFDCTFSDWQLDCVELD [ILA38]
MVLDCYIIEELDEYWCDWYS [ILA25]
DWLHCEIKPPFYHCWNMT [ILA30]
SETLCWDGWDIWICQDPQ [ILA12]
LSLWCWINDVNCSEPV [ILA31]
LDLWCWFPNDDWCMTHL [ILA24]
LDLWCWFPNDTKCMRLT [ILA9]
KCNFNPWKAACG [ILA29]
TSWECHETGDDYFYCWHLK [ILA47]
LSLWCFIDETSEQCSILS [ILA33]
SKYDCFWEHEWLYCAPRM [ILA2]
FDLYCWVWPDMMECTAGT [ILA3]
LALWCWMFPMSDECPPKH [ILA39]
IDPGCWLTPWSFQCPGYM [ILA16]
LNLWCWMFPAAAECEFDQ [ILA35]
STEGCHQDWYDLCAFLA [ILA5]
VDELCVFMFGQSDCRNLF [ILA43]
SNPWCHIAEYELWCWMGH [ILA46]
LSLWCWAFPSDTVCLARL [ILA44]
VSYLCDEYQGLLYCMVQR [ILA8]
DWATCWEFNELWYCIPYN [ILA13]
LGLWCWMFPIDSFCYPAI [ILA26]
LHLWCWMFPLDDACADFF [ILA23]
LTLWCWIFPQDEICWTML [ILA37]

The binders below were run against VEGF (UniProt P15692) (assay: MRD identification, Example 48).

binding, binds:
GCVKQVPWGLCI [VGF104]
GCVTEVPWWLCI [VGF71]
GCVKAAPWWLCV [VGF67]
TAWEAAASWLCA [VGF140]
GCVTQVPWWLCI [VGF60]
GCVKEVPWWLCV [VGF69]
ASWKPAPWWLCA [VGF156]
GCVAEVPWWLCT [VGF95]
GGVEAAAWWVGI [VGF101]
ACVKEAPWWLCI [VGF76]
TSGKATPGGACD [VGF162]
GCVAEVPWWLCI [VGF82]
ACVKEVPWWLCI [VGF62]
WCAGFPPTSAGY [VGF131]
ACVAEVPWWLCI [VGF65]
GAVTEAAWWLAI [VGF100]
GCVKPAPWWLCI [VGF70]
GCVKPAPWWLCV [VGF85]
GCVKQVPWWLCI [VGF63]
VEPNCDIHVMWEWECFERL [VGF107]
TCGKAAAAWLAA [VGF146]
GGVKQVASWLGT [VGF99]
GCVKQVPWWLCV [VGF59]
ACVKQVPWWLCI [VGF83]
GCVAQVPWWLCI [VGF72]
TGWKPTAWGVGD [VGF152]
